Among the data in US6692922 are binding values, retold here.

Results are given in words; binding and its absence hold for the method and conditions named. Some binding calls cover weakened binding; strength is not graded here.

The test addresses T1, human C-C chemokine receptor 10 (CCR10) expressed on L1/2 transfectants (human) (UniProt P46092).
T1 sequence (looked up): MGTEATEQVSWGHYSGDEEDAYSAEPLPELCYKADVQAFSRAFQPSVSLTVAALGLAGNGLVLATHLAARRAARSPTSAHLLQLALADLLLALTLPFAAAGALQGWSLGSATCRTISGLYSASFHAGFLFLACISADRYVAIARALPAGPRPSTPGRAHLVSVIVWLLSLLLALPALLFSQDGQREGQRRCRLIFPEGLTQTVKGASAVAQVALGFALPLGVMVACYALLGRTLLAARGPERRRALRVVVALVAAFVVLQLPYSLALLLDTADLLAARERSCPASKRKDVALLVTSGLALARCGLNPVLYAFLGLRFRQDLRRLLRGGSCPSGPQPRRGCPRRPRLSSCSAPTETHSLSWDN
The test can be described thus: inferred from chemotaxis of receptor transfectants.

B1: synthetic human mucosae-associated epithelial chemokine (MEC), predicted 105 amino acid mature protein (ligand)
chain: ILPIASSCCTEVSHHISRRLLERVNMCRIQRADGDCDLAAVILHVKRRRICVSPHNHTVKQWMKVQAAKKNGKGNVCHRKKHHGKRNSNRAHQGKHETYGHKTPY
modifications: biotin moiety (aminocaproic acid-biotin) added to Lysine 124
For the molecule B1, the binding entry is reported as “binds”.
